According to the supplement of paper PMC12823440, “Inhibitors supercharge kinase turnover through native proteolytic circuits” (Nature, 2025):
Structures can show the parent of a compound that is named as a salt. The list shows a part of the results. The calls rarely recur for the same compound in another form.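 In K562 cells expressing nanoluciferase-fused kinases, luminescence was recorded at 4 h intervals between 2 and 18 h, normalized as percent of control with DMSO at 100% and a positive control at 0%. A significant (2 sigma) signal drop marks a time point as decreased. The authors' rule for a hit is not shown and takes in more than the number of time points.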

Chains of the proteins cited; added tags and fusions are not shown. Lines headed by an entry give the natural chain unless they say otherwise; changes in a name come on top.
UniProt Q16288, whole entry, looked up: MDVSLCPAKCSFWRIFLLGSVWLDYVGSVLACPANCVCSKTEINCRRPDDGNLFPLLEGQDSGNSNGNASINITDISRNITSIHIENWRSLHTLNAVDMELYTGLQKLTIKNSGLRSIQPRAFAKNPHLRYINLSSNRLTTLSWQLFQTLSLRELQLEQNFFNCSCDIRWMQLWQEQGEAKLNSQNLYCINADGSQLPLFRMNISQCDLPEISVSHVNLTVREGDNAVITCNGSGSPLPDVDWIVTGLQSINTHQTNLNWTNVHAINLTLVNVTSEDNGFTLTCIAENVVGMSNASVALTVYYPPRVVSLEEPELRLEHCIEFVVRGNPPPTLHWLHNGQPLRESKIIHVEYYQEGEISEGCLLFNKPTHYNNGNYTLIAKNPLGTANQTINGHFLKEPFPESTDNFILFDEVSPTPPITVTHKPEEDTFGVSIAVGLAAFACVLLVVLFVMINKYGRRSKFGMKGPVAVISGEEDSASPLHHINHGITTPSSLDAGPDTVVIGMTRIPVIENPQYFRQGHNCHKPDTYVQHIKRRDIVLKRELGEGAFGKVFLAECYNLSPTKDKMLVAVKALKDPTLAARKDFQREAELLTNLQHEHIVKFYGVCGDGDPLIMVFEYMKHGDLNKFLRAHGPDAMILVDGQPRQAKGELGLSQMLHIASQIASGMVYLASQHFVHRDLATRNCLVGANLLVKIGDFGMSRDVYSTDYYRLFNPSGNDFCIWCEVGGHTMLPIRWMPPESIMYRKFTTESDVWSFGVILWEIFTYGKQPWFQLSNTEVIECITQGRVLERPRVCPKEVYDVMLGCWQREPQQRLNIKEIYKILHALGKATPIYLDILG
UniProt O96013: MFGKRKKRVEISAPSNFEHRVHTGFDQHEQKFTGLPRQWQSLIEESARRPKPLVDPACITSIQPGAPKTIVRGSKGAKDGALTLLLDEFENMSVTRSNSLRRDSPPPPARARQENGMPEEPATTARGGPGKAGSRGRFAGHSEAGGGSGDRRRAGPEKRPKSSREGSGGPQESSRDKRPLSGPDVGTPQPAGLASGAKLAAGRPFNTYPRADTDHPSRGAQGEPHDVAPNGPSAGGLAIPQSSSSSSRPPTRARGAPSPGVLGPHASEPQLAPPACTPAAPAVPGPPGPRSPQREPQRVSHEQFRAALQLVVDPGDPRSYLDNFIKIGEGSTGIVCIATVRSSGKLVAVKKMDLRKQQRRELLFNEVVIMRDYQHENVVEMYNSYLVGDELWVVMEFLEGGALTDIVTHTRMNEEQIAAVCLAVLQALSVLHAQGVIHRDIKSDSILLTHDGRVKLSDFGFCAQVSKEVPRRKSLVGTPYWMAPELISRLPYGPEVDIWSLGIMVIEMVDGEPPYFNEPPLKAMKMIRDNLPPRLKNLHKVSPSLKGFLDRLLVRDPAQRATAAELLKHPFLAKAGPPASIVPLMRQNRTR
UniProt Q96KB5: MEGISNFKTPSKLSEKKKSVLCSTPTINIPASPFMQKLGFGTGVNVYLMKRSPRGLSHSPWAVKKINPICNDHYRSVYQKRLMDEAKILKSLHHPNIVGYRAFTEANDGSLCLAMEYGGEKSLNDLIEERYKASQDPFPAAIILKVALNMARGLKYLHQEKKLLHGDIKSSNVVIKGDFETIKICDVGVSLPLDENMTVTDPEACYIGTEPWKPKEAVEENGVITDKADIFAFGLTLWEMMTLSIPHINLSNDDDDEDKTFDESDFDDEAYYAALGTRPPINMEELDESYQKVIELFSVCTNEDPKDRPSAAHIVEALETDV
UniProt P09619, whole entry: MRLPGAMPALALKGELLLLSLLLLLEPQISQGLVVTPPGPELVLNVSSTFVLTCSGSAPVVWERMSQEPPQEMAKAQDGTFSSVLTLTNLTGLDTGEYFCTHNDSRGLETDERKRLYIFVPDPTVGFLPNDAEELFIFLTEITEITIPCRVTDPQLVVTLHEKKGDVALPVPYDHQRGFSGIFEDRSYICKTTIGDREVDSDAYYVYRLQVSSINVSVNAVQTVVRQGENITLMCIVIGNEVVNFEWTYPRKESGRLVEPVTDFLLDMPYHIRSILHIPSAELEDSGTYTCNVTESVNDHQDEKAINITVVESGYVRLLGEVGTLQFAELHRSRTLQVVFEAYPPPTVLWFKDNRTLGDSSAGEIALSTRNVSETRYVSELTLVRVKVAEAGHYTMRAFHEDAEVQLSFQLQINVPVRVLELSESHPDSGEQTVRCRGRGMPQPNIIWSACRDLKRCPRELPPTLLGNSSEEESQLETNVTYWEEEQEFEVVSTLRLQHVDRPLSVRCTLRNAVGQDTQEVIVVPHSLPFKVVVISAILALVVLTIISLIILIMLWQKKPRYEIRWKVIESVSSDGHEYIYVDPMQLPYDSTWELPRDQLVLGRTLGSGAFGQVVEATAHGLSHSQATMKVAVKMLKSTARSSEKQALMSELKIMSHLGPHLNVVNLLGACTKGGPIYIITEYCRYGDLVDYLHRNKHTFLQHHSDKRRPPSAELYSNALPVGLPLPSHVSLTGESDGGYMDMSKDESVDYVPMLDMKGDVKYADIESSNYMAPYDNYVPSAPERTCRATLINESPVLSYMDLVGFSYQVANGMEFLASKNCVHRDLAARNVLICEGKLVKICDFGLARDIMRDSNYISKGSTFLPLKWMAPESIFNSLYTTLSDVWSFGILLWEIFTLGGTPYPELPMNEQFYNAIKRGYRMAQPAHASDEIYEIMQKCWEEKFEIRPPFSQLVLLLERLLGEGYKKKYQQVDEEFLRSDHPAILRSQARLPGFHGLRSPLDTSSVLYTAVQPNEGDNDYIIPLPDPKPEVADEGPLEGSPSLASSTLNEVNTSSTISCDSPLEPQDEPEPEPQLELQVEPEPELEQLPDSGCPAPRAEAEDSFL
UniProt Q15118, whole entry, looked up: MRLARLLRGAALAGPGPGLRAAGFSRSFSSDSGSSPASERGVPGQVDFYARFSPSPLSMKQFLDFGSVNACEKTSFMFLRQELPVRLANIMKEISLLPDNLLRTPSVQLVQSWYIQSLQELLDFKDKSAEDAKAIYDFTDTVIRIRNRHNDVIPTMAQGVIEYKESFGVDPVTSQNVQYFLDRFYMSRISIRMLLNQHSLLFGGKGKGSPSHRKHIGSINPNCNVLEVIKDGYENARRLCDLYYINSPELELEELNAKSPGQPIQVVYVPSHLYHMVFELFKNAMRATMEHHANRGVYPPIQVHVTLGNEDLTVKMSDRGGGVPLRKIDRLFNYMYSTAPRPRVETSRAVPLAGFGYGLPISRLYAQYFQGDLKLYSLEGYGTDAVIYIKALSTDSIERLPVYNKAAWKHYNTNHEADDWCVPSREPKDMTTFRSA
UniProt O15530: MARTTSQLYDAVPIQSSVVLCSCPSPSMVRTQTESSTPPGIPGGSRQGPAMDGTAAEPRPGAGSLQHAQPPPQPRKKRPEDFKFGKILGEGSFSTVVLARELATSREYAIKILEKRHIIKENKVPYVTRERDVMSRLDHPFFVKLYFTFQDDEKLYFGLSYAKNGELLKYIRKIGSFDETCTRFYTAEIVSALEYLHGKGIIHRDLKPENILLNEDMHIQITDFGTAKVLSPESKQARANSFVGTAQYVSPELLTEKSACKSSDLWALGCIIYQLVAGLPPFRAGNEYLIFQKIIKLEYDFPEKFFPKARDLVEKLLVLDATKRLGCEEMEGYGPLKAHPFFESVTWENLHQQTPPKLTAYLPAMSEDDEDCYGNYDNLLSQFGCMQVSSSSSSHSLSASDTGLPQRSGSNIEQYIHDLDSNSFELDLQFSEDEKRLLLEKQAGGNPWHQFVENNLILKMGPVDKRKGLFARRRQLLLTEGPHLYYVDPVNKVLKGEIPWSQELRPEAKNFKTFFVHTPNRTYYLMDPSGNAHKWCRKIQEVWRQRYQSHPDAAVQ
UniProt Q9UBF8: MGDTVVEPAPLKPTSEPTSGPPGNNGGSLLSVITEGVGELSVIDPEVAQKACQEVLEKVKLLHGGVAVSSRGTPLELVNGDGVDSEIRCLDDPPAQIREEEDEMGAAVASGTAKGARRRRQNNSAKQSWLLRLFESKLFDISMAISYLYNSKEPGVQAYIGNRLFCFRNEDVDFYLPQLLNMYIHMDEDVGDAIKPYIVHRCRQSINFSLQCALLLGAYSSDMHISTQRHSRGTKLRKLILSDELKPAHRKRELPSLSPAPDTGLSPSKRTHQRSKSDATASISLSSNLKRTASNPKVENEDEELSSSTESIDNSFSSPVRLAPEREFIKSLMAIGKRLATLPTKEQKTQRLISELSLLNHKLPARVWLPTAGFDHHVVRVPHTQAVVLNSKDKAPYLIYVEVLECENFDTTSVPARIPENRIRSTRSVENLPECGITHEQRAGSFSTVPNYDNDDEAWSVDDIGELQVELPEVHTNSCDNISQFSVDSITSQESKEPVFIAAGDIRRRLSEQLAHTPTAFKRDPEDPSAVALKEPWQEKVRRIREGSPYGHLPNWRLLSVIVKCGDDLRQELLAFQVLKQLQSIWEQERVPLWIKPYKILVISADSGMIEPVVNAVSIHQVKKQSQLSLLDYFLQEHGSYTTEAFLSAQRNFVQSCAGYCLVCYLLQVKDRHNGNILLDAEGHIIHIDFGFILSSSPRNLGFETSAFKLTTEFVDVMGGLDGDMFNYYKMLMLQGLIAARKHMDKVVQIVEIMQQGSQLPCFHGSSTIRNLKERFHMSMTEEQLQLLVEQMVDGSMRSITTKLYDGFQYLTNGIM
UniProt P53350, whole entry: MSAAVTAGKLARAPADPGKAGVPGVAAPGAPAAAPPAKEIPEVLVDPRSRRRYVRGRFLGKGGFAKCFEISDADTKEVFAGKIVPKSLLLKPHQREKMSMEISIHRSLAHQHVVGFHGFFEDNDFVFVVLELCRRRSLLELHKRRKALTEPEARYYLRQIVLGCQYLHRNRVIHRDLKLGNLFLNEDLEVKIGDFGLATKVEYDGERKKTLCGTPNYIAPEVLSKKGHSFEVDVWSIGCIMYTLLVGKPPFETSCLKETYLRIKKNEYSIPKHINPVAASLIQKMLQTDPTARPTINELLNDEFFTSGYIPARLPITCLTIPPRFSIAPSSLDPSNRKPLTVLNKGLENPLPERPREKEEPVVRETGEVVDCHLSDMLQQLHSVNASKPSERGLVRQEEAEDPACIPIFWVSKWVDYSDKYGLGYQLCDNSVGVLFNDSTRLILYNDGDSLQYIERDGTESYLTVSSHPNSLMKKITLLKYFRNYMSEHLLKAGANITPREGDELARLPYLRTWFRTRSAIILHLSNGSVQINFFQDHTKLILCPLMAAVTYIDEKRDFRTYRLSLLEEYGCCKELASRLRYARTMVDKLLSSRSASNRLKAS
UniProt Q13131: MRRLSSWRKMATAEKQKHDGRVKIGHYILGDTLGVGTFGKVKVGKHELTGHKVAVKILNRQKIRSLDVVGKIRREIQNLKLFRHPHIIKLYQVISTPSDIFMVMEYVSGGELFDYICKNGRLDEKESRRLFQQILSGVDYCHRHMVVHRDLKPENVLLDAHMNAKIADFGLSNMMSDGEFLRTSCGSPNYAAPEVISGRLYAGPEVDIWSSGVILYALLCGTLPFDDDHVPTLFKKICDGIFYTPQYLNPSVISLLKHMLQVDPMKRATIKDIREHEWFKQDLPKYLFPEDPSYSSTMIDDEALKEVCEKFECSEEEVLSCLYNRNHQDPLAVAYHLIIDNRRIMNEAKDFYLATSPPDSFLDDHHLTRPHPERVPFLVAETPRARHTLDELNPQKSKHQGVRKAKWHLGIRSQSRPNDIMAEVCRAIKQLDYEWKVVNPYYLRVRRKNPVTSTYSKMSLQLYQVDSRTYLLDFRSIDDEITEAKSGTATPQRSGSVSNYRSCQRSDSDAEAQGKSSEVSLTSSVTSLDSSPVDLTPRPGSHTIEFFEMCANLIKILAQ

Assays:
Assay in all cases: number of time points (of 5) at which kinase-Nluc abundance scored as decreased, DMSO-normalised (count); higher = more persistent destabilization
Settings in all cases: K562; 2-18 h
[1] = target: NTRK3 (UniProt Q16288)
[2] = target: PAK4 (UniProt O96013)
[3] = target: PBK (UniProt Q96KB5)
[4] = target: PDGFRB (UniProt P09619)
[5] = target: PDK1 (UniProt Q15118)
[6] = target: PDPK1 (UniProt O15530)
[7] = target: PIK4CA (UniProt P42356)
[8] = target: PIK4CB (UniProt Q9UBF8)
[9] = target: PLK1 (UniProt P53350)
[10] = target: PRKAA1 (UniProt Q13131)

SMILES	number of time points [1]	number of time points [2]	number of time points [3]	number of time points [4]	number of time points [5]	number of time points [6]	number of time points [7]	number of time points [8]	number of time points [9]	number of time points [10]
Nc1nc(N)c2nc(-c3cccc(O)c3)c(-c3cccc(O)c3)nc2n1 (10 µM)	0	0	0	0	0	0	0	0	0	0
CC(C)=CC[C@@H](O)C1=CC(=O)c2c(O)ccc(O)c2C1=O [Shikonin] (10 µM)	0	0	0	0	0	0	0	0	0	0
C[C@H]1O[C@@H](O[C@H]2CC[C@@]3(C)[C@@H](CC[C@]4(C)[C@@H]3C=C[C@]35OC[C@@]6(CCC(C)(C)C[C@H]63)[C@H](O)C[C@]54C)[C@]2(C)CO)[C@H](O)[C@@H](O[C@@H]2O[C@H](CO)[C@@H](O)[C@H](O)[C@H]2O)[C@H]1O [Saikosaponin D] (2.5 µM)	0	0	0	0	0	0	0	0	0	0
CC(Cc1ccc(O)c(O)c1)C(C)Cc1ccc(O)c(O)c1 (stereo not given) [Nordihydroguaiaretic acid] (2.5 µM)	0	0	0	0	0	0	0	0	0	0
CC1=C(C(=O)Nc2cc3cn[nH]c3cc2F)C(c2ccc(C(F)(F)F)cc2)CC(=O)N1 (stereo not given) (10 µM)	0	0	0	0	0	0	0	0	0	0
C=CC(=O)Nc1ccc(C(=O)Nc2[nH]nc3c2CN(C(=O)N[C@H](CN(C)C)c2ccccc2)C3(C)C)cc1 (10 µM)	2	0	0	2	2	4	1	2	1	1
Cn1c(CNc2cccc(C(=O)NCc3ccccc3C(F)(F)F)c2)nnc1-c1ccncc1 (10 µM)	0	0	0	2	0	0	0	0	0	0
Cc1cc(CSc2ccccc2C(=O)NCCNc2ccc(C(F)(F)F)cc2[N+](=O)[O-])on1 (10 µM)	0	0	0	0	0	0	0	0	0	0
CC(C)[C@H](CO)Nc1nc(Nc2cccc(Cl)c2)c2ncn(C(C)C)c2n1 [Purvalanol A] (10 µM)	0	0	0	0	0	0	0	0	0	0
CO[C@H]1CC[C@H](N2C(=O)CNc3ncc(-c4ccc(C(C)(C)O)nc4)nc32)CC1 (2.5 µM)	0	0	0	0	0	0	0	0	0	0
Cc1cc(O)c2c(c1)C(=O)c1cccc(O)c1C2=O [Chrysophanol] (2 µM)	0	0	0	0	0	0	0	0	0	0
O=C1Nc2ccc(I)cc2/C1=C/c1cc(Br)c(O)c(Br)c1 (10 µM)	0	0	0	4	0	0	0	1	0	0
CC(C)n1ncnc1-c1cn2c(n1)-c1ccc(O[C@@H](C)C(N)=O)cc1OCC2 (10 µM)	0	0	0	0	0	0	0	0	0	0
CC(Sc1nc2c(cnn2-c2cccc(Cl)c2)c(=O)[nH]1)C(N)=O (stereo not given) (10 µM)	0	0	0	0	0	0	0	0	0	0
Cn1c(=O)c2c(nc(S(C)(=O)=O)n2C)n(CC#Cc2cccc(O)c2)c1=O (2.5 µM)	0	0	0	0	0	0	0	0	0	0
CCNC(=O)C#Cc1ccc2c(C(=Nc3ccc(CN(C)C)cc3)c3ccccc3)c(O)[nH]c2c1 (2.5 µM)	0	0	0	0	0	0	0	0	0	0
CCN(CC)CCOc1ccc(Nc2nc(-c3ccccc3NC(=O)CCN3CCN(C)CC3)nc3ccccc23)cc1 (2.5 µM)	0	0	0	0	0	0	0	0	0	0
COc1cc2c(cc1OC)/C(=C/c1ccc(O)cc1)C(=O)N2 (10 µM)	0	0	0	0	0	0	0	0	0	0
Cc1c(C)c(NCC(=O)N(C)C2CCN(Cc3ccc(C(N)=O)cc3)CC2)c(C)c(C)c1N (10 µM)	0	0	0	0	0	0	0	0	0	0

SMILES	number of time points [1]	number of time points [2]	number of time points [3]	number of time points [4]	number of time points [5]	number of time points [6]	number of time points [7]	number of time points [8]	number of time points [9]	number of time points [10]
COc1cc2ncnc(Nc3cccc(I)c3)c2cc1OC (2.5 µM)	0	0	0	0	0	0	0	0	0	0
Cc1cccc(/C=N/Nc2cc(N3CCOCC3)n3nc(-c4ccncc4)cc3n2)c1 (10 µM)	0	0	0	0	0	0	0	0	0	0
C=CC(=O)Nc1cccc(Oc2nc(Nc3ccc(N4CCN(C)CC4)c(F)c3)nc3[nH]ccc23)c1 [Avitinib (maleate)] (2.5 µM)	0	0	0	0	0	0	0	0	0	0
COC(=O)[C@H](CCSC)NC(=O)c1ccc(NC[C@@H](N)CS)cc1-c1ccccc1 [FTI-277 (hydrochloride)] (10 µM)	0	0	0	0	0	0	0	0	0	0
COc1cc2c(cc1O)C[C@H]1c3cc(O)c(OC)cc3CC[N@@+]1(C)C2 [Phellodendrine] (10 µM)	0	0	0	0	0	0	0	0	0	0
CCN1CCN(Cc2cnc(Nc3cc(-c4cc(F)c5nc(C)n(C(C)C)c5c4)c(F)cn3)nc2)CC1 (10 µM)	0	0	0	0	0	0	0	0	0	0
CCN(CC)CCCC(C)Nc1nc(C)cc(Nc2ccc3nc(C)cc(N)c3c2)n1 (stereo not given) (10 µM)	0	0	0	0	0	0	0	0	0	0
CC1(N)CCN(c2cccnc2NC(=O)c2nc(-c3ncccc3C(F)(F)F)cnc2N)CC1 [Darovasertib] (10 µM)	0	0	0	0	0	0	0	0	0	0
NC(=O)c1ccc(N(C(N)=O)c2c(F)cccc2F)nc1-c1ccc(F)cc1F (10 µM)	0	0	0	0	0	0	0	0	0	0
Nc1nc2c(nc(Br)n2[C@@H]2O[C@@H]3COP(=O)(O)O[C@H]3[C@H]2O)c(=O)[nH]1 [8-Bromo-cGMP (sodium)] (10 µM)	0	0	0	0	0	0	0	0	0	0
O=c1cc(-c2ccccc2)oc2cc(O[C@@H]3O[C@H](CO[C@@H]4O[C@H](CO)[C@@H](O)[C@H](O)[C@H]4O)[C@@H](O)[C@H](O)[C@H]3O)c(O)c(O)c12 [Oroxin B] (10 µM)	0	0	0	0	0	0	0	0	0	0
COc1cc(-c2oc3cc(O)cc(O)c3c(=O)c2O)ccc1O [Isorhamnetin] (10 µM)	0	0	0	0	0	0	0	0	0	0
COc1cc2ncnc(Nc3ccc(O)c(Br)c3)c2cc1OC (10 µM)	0	0	0	0	0	2	0	0	0	0
c1nc2c(NC3CCCCC3)nc(Nc3ccc(N4CCOCC4)cc3)nc2[nH]1 [Reversine] (10 µM)	0	0	0	0	0	1	0	0	2	2
c1nn(C2CCOCC2)cc1Nc1ncc2nnn(-c3ccc4cn[nH]c4c3)c2n1 (10 µM)	0	0	0	0	0	0	0	0	0	0
O=C(c1cccc(Cl)c1F)N1CCN(Cc2cccc(Nc3nccs3)n2)CC1 (2.5 µM)	0	0	0	0	0	0	0	0	0	0
NS(=O)(=O)c1ccc(Nc2nc(-c3cccc(-c4ccccc4)c3)c3[nH]cnc3n2)cc1 (10 µM)	0	0	0	0	0	0	0	0	0	0
CC(C)=CCC/C(C)=C/CC/C(C)=C/C=C/C(C)=C/C(=O)O [Peretinoin] (10 µM)	0	0	0	0	0	0	0	0	0	0

Already shown: an excerpt of the list.
SMILES	number of time points [1]	number of time points [2]	number of time points [3]	number of time points [4]	number of time points [5]	number of time points [6]	number of time points [7]	number of time points [8]	number of time points [9]	number of time points [10]
CC1=C(C(=O)Nc2cc3cn[nH]c3cc2F)C(c2ccc(C(F)(F)F)cc2)CC(=O)N1 (stereo not given) (10 µM)	0	0	0	0	0	0	0	0	0	0
C=CC(=O)Nc1ccc(C(=O)Nc2[nH]nc3c2CN(C(=O)N[C@H](CN(C)C)c2ccccc2)C3(C)C)cc1 (10 µM)	2	0	0	2	2	4	1	2	1	1
